According to publication doi:10.1101/440800:
Numbering of substitutions follows the chain as printed. Where two headings read alike, the source gives them in different places. These are yes or no findings as the source states them, for the method shown. In cells and extracts the contact can be indirect. Some entries that bind do so weakly or less than the wild type. For some assays here: Sequences can lack the tags named with a protein.

Sequences of proteins named here, by UniProt entry; tags and fusion partners are left off. Residues count along the entry.
UniProt Q01097, residues 27-1482: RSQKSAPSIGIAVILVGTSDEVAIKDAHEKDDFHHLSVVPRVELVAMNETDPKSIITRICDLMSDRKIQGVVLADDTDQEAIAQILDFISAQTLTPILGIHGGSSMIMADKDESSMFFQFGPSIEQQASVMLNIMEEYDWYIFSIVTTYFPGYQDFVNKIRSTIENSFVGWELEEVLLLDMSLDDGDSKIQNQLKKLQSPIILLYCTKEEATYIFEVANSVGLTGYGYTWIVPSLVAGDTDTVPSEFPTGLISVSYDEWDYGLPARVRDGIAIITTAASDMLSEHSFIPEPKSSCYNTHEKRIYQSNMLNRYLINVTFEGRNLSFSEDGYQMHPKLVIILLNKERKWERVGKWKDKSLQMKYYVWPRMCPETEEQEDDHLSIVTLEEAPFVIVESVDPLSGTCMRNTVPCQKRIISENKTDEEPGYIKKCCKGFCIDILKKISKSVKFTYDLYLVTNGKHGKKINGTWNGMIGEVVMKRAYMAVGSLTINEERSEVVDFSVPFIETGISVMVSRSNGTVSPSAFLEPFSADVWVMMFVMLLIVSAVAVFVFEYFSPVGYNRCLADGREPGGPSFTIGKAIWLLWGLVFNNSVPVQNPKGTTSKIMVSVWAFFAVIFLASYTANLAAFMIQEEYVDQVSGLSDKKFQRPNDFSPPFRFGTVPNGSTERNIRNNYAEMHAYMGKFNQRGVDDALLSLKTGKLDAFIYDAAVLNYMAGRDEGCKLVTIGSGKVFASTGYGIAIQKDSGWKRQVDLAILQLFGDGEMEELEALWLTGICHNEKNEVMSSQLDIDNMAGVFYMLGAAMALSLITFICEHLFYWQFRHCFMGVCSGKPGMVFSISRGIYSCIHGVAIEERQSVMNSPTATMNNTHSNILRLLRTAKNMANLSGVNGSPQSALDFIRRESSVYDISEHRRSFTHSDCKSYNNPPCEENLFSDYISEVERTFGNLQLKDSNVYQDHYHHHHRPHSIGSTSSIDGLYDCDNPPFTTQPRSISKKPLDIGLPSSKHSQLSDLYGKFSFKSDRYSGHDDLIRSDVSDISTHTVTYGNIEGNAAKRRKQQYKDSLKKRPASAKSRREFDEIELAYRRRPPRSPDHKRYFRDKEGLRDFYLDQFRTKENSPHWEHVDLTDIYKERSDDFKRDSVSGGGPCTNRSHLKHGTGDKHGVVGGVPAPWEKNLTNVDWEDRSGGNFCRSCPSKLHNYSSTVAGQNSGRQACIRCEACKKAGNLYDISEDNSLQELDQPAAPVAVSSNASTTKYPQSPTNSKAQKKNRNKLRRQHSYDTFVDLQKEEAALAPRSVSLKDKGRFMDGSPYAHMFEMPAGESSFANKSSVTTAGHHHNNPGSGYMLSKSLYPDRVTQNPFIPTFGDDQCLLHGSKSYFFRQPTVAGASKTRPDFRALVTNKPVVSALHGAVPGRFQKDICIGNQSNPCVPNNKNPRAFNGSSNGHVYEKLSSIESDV

How the values were obtained:
[1] = biological target: T1, GST-tagged Kif5b tail fragment (900-935 aa), 913-915 RRG to AAA (UniProt Q61768); assay: pull-down
T1 sequence: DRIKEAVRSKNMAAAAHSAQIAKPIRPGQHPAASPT

[2] = biological target: GST-tagged Kif5b tail fragment (900-935 aa), 907-909 RSK to AAA (UniProt Q61768); assay: pull-down
[3] = biological target: GST-tagged Kif5b tail fragment (900-935 aa), 907-909 RSK to SSS (UniProt Q61768); assay: pull-down
[4] = biological target: GST-tagged Kif5b tail fragment (900-935 aa), 910-912 NMA to AAA (UniProt Q61768); assay: pull-down
[5] = biological target: GST-tagged Kif5b tail fragment (900-935 aa) (UniProt Q61768); assay: pull-down
[6] = biological target: T2, GST-tagged Kif5b tail fragment (900-935 aa), 910-912 NMA to SSS (UniProt Q61768); assay: pull-down
T2 sequence: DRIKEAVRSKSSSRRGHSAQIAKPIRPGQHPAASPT

[7] = biological target: T3, GST-tagged Kif5b tail fragment (900-935 aa), 913-915 RRG to SSS (UniProt Q61768); assay: pull-down
T3 sequence: T1 sequence with A14S, A15S, A16S

[8] = biological target: Kif5b, the heavy chain of kinesin-1 (endogenous) (mouse (endogenous in mouse brain)) (UniProt Q61768); assay: co-IP
[9] = biological target: Kif5b, the heavy chain of kinesin-1 (endogenous) (mouse (endogenous in mouse brain)) (UniProt Q61768); assay: co-IP; remark: listed apart in the source
[10] = biological target: GluN1 NMDAR subunit (endogenous) (mouse (endogenous in mouse brain)) (UniProt P35438); assay: co-IP

GluN2B NMDAR subunit (endogenous) (from UniProt Q01097 27-1482) (receptor)
binding [1]: no binding | binding [2]: no binding | binding [3]: no binding | binding [4]: binds | binding [5]: binds | binding [6]: binds | binding [7]: no binding | binding [8]: binds | binding [9]: binds

Kif5b, the heavy chain of kinesin-1 (endogenous) (from UniProt Q61768 1-963)
binding [10]: binds

GluN2A NMDAR subunit (endogenous) (from UniProt P35436 23-1464) (receptor)
binding [9]: binds
